Source: PubChem BioAssay AID743454 (Peter MacCallum Cancer Centre, 2014)
Test: 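Genes whose loss kills vorinostat-resistant colon cancer cells under vorinostat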 (primary screen). Cells: human HCT116-VR colon cancer cells, selected for vorinostat resistance. Knock-down reagent: siRNA pool against human genes, 40 nM siRNA pool. Time to read-out: vorinostat for 24 h, read-out about 72 h after transfection. Challenge: vorinostat at 2.5 µM final. Read-out: 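Two measures, CellTiter-Fluor viability and luminescent caspase 3/7 activity, each as fold change against same-plate mock wells, mean of duplicates, then screen-wide robust z-score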. Reading the numbers: viability robust z-score: higher = more viable cells than screen typical; caspase robust z-score: higher = more caspase 3/7 activity than screen typical. Active means: 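a knock-down is a hit when classed RV1 or RV2 for lowered viability, or CA1 or CA2 for caspase activation; those lethal without drug were dropped; hits were retested singly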.
This is an unselected part of about 18,000 deposited reagents. Over the whole deposit, 450 (2.5%) got an active call. 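Single biological run; no consistent viability z cut-off exists, so the class columns, not z-scores, define the calls.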 The numbers tell different reagents against one gene apart.

gene	pool no.	viability hit class	caspase hit class	viability robust z-score	caspase robust z-score	activity call
GJB3 (gap junction protein beta 3)	1	no change	no change	0.54	-0.62	inactive
SLC7A2	1	no change	no change	-0.58	-0.74	inactive
OR52B2 (olfactory receptor family 52 subfamily B member 2)	1	no change	no change	-0.78	-0.44	inactive
PTPN20 (protein tyrosine phosphatase non-receptor type 20)	1	no change	no change	0.64	0.28	inactive
PTPN20 (protein tyrosine phosphatase non-receptor type 20)	2	no change	no change	0.4	-0.24	inactive
MCAM (melanoma cell adhesion molecule)	1	no change	no change	0.82	0.73	inactive
KLRK1 (killer cell lectin like receptor K1)	1	no change	no change	-0.47	-0.8	inactive
TYMP (thymidine phosphorylase)	1	no change	no change	0.34	0.62	inactive
SRSF7 (serine and arginine rich splicing factor 7)	1	no change	no change	-0.8	3.8	inactive
NKX3-1 (NK3 homeobox 1)	1	no change	no change	0.96	-0.16	inactive
ELF4 (E74 like ETS transcription factor 4)	1	no change	no change	-1.98	3.58	inactive
CREB3L1 (cAMP responsive element binding protein 3 like 1)	1	no change	no change	-1.86	-0.24	inactive
COL1A2 (collagen type I alpha 2 chain)	1	no change	no change	0.2	0.57	inactive
MTX2 (metaxin 2)	1	no change	no change	0.48	0.52	inactive
FAM120AOS (family with sequence similarity 120 member A opposite strand)	1	no change	no change	1.84	1.67	inactive
SKA3 (spindle and kinetochore associated complex subunit 3)	1	no change	no change	0.82	3.12	inactive
MARCHF9 (membrane associated ring-CH-type finger 9)	1	no change	no change	-1.21	3.6	inactive
EEA1 (early endosome antigen 1)	1	no change	no change	1.34	0.61	inactive
ZBTB7C (zinc finger and BTB domain containing 7C)	1	no change	no change	-0.08	-0.52	inactive
MAP3K19 (mitogen-activated protein kinase kinase kinase 19)	1	no change	no change	-1.54	-0.88	inactive
DNAH5 (dynein axonemal heavy chain 5)	1	no change	no change	1.09	-0.1	inactive
FBXO31 (F-box protein 31)	1	no change	no change	0.14	-0.97	inactive
TPMT (thiopurine S-methyltransferase)	1	no change	no change	0.25	1.4	inactive

Ordered by “caspase robust z-score” (ascending): 4 of the entries above
gene	pool no.	viability hit class	caspase hit class	viability robust z-score	caspase robust z-score	activity call
FBXO31 (F-box protein 31)	1	no change	no change	0.14	-0.97	inactive
MAP3K19 (mitogen-activated protein kinase kinase kinase 19)	1	no change	no change	-1.54	-0.88	inactive
DNAH5 (dynein axonemal heavy chain 5)	1	no change	no change	1.09	-0.1	inactive
TPMT (thiopurine S-methyltransferase)	1	no change	no change	0.25	1.4	inactive
